SMILES strings stand for the structures.

This data set can be described thus: HILIC, Waters ACQUITY UPLC BEH Amide, 100 × 2.1 mm, 1.7 µm; A: water + 0.125% formic acid + 10 mM ammonium formate; B: 5% water + 95% acetonitrile + 0.125% formic acid + 10 mM ammonium formate; gradient (min/%B) 0/100 2/100 7.7/70 9.5/40 10.25/30 12.75/100 17/100. Particulars: stereoisomer not certain.

Consider `Cc1cccc(CCN2CCC(C(=O)c3ccc(NS(C)(=O)=O)cc3)CC2)n1` [E-4031], for which the LC retention time was found to be 2.92 min.

Take `Cc1c(C(=O)NN2CCCCC2)nn(-c2ccc(Cl)cc2Cl)c1-c1ccc(I)cc1` [AM-251]: the LC retention time was found to be 0.97 min.
